Reference: PubChem BioAssay AID2685 (National Center for Advancing Translational Sciences (NCATS), 2010)
Some of the results follow. These are further read-outs of the screen, such as a control signal, another cell line or another target. No call is given for them. Most of these compounds were active or inconclusive in the main read-out, so they are no random draw. Words in brackets tell the shape of the fitted curve; partial curves, single points and poor fits give uncertain potencies.

Assay: qHTS Assay for Lipid Storage Modulators in Drosophila S3 Cells;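 for cell number change: cells counted by Cell Tracker Red CMTPX staining in the red channel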
Conditions: BODIPY lipid droplet fluorescence, 18-24 h; for cell number change: measured here: cell count max response, cells fed with added oleic acid
In short: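 Laser-scanning cytometry quantifies lipid droplet accumulation (500–530 nm total intensity; droplet/cell object ratio) in oleic acid-fed (400 uM added) Drosophila S3 cells treated with a concentration series. 20 uM Triacsin C defined 100% inhibition.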

[1] = measured here: lipid fluorescence (Fed channel) AC50, cells fed with added oleic acid
[2] = measured here: cell number channel AC50, cells fed with added oleic acid

Row | SMILES | cell number change [%] | AC50 [1] | AC50 [2]
1 | CC(C)=CCOc1c2ccoc2cc2oc(=O)ccc12 | 23.7 | 1.64 µM [rising, partial curve] | –
2 | COc1ccc([C@@H]2[C@@H]3C(=O)N(C(C)(C)C)C(=O)[C@@H]3[C@]3(Cc4ccc(Cl)cc4)C(=O)N(c4cccc(Br)c4)C(=O)N23)cc1 | 91.9 | – | –
3 | CCOC(=O)C1(Cc2ccccc2)CCN(Cc2cnn(CC)c2)CC1 | 0.358 | 4.61 µM [rising, single point] | –
4 | COc1cccc(/C=C/C(=O)OCC(=O)c2ccc(S(=O)(=O)N3CCCCC3)cc2)c1OC | -20.3 | – | –
5 | CCn1c(N2CCN(C(=S)NC)CC2)nc2ccccc21 | -7.73 | 0.58 µM [falling, single point] | –
6 | O=C(CSc1nnc(NC(=O)c2cccc(F)c2)s1)NCc1ccco1 | 4.27 | 0.13 µM [rising, full curve, poor fit] | –
7 | Cc1cc(NC(=O)Nc2ccc(Cl)cc2)n(C)n1 | -37.6 | 29.1 µM [falling, single point] | 3.26 µM [falling, partial curve, poor fit]
8 | CCCCN(C)C(=O)c1cn(C)c2ccc(S(=O)(=O)N3CCC(C)CC3)cc2c1=O | 14.9 | – | –
9 | O=C1CCCC2=C1C(c1ccccc1)n1c(s/c(=C/c3cccc(F)c3)c1=O)=N2 (centres undefined) | 22.9 | 0.651 µM [falling, full curve] | –
10 | OCC[C@H]1C[C@H](O)[C@@H](O)[C@]2(OCCc3ccccc32)O1 | -43.5 | – | 29.1 µM [falling, single point]
11 | CCc1ccccc1NS(=O)(=O)Cc1ccccc1 | -11.3 | – | –
12 | Cn1nc(C(=O)OCc2ccc(Br)cc2F)c2ccccc2c1=O | -0.583 | – | –
13 | CCC(C)(C)NC(=O)c1sccc1Oc1ccc(F)cc1[N+](=O)[O-] | 58.3 | – | –
14 | C=CCC1c2cccc(C(=O)O)c2C(=O)N1c1ccc(Cl)cc1 (centres undefined) | 61.8 | – | 13 µM [rising, partial curve]
15 | NNC(=O)CSc1nc(-c2ccccc2)nc2c1CCCC2 | -84.2 | – | –
16 | CCc1cc2c3c(c(=O)oc2cc1OCC(=O)OC)CCCC3 | -4.56 | – | –
17 | CCCNC(=O)C(Cc1ccc(I)cc1)NC(=O)c1ccc(C#N)cc1 (centres undefined) | 5.43 | 0.00461 µM [falling, full curve, poor fit] | 0.0058 µM [falling, full curve, poor fit]
18 | NC1=NC[C@H](Cc2ccc(O)cc2)N1CCc1cccc2ccccc12 | -5.56 | – | –
19 | Cc1cc(C)cc(NC(=O)CSc2nnnn2-c2cccnc2)c1 | 11.3 | 6.51 µM [rising, single point] | –
20 | CCOC(=O)c1c(NC(=O)C2CC2)sc(C)c1CC | -33.8 | 16.4 µM [falling, single point] | 29.1 µM [falling, single point]

Complete entries, quoted from the list.
`CCOC(=O)c1c(NC(=O)C2CC2)sc(C)c1CC` in the list: cell number change [%]: -33.8; AC50 [1]: 16.4 µM [falling, single point]; AC50 [2]: 29.1 µM [falling, single point]
`OCC[C@H]1C[C@H](O)[C@@H](O)[C@]2(OCCc3ccccc32)O1` in the list: cell number change [%]: -43.5; AC50 [2]: 29.1 µM [falling, single point]
